Experimental data: article doi:10.1101/2021.12.02.470991
Results are given in words; binding and its absence hold for the method and conditions named. Binding seen in cells or lysates may run through a third protein. Some binding calls cover weakened binding; strength is not graded here. For some assays here: Tags and fused reporters may be left off the sequences shown.

The chains behind the UniProt entries cited, without tags or fusion partners.
UniProt Q92922: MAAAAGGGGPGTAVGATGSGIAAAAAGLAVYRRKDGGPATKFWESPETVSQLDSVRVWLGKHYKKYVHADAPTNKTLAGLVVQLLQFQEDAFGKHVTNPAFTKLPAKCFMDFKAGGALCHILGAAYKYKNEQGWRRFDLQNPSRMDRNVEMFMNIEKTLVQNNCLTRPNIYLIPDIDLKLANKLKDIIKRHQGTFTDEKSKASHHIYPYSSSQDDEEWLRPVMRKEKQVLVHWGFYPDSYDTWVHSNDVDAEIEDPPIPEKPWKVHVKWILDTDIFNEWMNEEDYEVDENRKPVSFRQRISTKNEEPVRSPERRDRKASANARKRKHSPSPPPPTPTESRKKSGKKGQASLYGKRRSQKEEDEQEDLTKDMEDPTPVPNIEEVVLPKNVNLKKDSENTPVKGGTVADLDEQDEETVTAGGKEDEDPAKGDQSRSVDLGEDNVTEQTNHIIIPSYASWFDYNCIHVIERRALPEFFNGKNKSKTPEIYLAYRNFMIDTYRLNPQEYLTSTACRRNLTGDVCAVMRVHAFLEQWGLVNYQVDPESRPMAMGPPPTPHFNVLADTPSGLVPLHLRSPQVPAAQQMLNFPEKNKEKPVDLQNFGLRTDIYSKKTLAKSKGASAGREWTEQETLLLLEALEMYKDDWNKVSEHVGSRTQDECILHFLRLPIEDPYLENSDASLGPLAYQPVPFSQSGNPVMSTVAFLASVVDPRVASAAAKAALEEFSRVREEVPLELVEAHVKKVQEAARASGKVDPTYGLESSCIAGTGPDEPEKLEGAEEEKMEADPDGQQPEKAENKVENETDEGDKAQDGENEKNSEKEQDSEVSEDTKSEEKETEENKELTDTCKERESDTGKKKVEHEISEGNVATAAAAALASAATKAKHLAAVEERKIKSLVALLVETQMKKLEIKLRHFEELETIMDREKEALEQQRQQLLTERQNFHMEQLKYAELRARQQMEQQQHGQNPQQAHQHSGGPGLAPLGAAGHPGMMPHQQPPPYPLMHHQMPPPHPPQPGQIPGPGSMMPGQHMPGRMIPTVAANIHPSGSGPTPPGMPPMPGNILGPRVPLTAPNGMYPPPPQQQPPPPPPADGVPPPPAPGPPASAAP

Key:
[1] = molecular target: HER2 (Epidermal Growth Factor Receptor-family member) (human (endogenous in human cells)) (UniProt P04626); assay: co-IP
[2] = molecular target: T1, SWI3B fused to YFN (Arabidopsis thaliana) (UniProt Q84JG2); assay: split reporter
T1 sequence: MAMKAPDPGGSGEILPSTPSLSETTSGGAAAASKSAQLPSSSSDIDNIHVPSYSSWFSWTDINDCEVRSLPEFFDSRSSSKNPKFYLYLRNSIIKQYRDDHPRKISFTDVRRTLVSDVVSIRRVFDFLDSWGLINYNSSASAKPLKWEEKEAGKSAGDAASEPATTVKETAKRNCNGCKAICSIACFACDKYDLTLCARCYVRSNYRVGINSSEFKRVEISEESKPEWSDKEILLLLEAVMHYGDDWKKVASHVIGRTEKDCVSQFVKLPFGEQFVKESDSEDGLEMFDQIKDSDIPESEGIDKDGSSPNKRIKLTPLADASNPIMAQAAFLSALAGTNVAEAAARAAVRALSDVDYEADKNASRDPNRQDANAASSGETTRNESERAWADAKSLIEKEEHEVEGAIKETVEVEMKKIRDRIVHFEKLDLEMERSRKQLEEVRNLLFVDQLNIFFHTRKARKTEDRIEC

In the case of “BAF155, SWI3-type subunit of human SWI/SNF CRCs (from UniProt Q92922 1-1105)”, the binding [1] is reported as “binds”.

B1: RGL1 DELLA protein fused to YFC (protein, UniProt Q9C8Y3 1-511)
chain: MKREHNHRESSAGEGGSSSMTTVIKEEAAGVDELLVVLGYKVRSSDMADVAHKLEQLEMVLGDGISNLSDETVHYNPSDLSGWVESMLSDLDPTRIQEKPDSEYDLRAIPGSAVYPRDEHVTRRSKRTRIESELSSTRSVVVLDSQETGVRLVHALLACAEAVQQNNLKLADALVKHVGLLASSQAGAMRKVATYFAEGLARRIYRIYPRDDVALSSFSDTLQIHFYESCPYLKFAHFTANQAILEVFATAEKVHVIDLGLNHGLQWPALIQALALRPNGPPDFRLTGIGYSLTDIQEVGWKLGQLASTIGVNFEFKSIALNNLSDLKPEMLDIRPGLESVAVNSVFELHRLLAHPGSIDKFLSTIKSIRPDIMTVVEQEANHNGTVFLDRFTESLHYYSSLFDSLEGPPSQDRVMSELFLGRQILNLVACEGEDRVERHETLNQWRNRFGLGGFKPVSIGSNAYKQASMLLALYAGADGYNVEENEGCLLLGWQTRPLIATSAWRINRVE
With B1 the binding [2] was “binds”.
